Reference: patent publication EP4534528A1, “NOVEL SULFANONE DERIVATIVE OR PHARMACEUTICALLY ACCEPTABLE SALT THEREOF, AND USE THEREOF” (Korea Institute of Science and Technology, priority 2022, dated 2023)
Some entries share one result that the patent states for a list of compounds.

System: Nrf2
Assay: Nrf2 functional cell-based assay (DiscoveRx)
Conditions: U2OS cells

COc1ccccc1S(=O)(/C=C/c1ccccc1Cl)=NC#N (stereo not shown) [Compound 1-57, (E)-N-((2-chlorostyryl)(2-methoxyphenyl)(oxo)-λ^6-sulfanylidene)cyanamide]
Nrf2 activation effect compared with Sulforaphane (in words): better Nrf2 activation effect than Sulforaphane
